Assay results from PMC11230868, “eIF2β zinc-binding domain interacts with the eIF2γ subunit through the guanine nucleotide binding interface to promote Met-tRNAi^Met binding” (Bioscience Reports, 2024).
These are yes or no findings as the source states them, for the method shown. For some assays here: In cells and extracts the contact can be indirect. Some binding calls cover weakened binding; strength is not graded here.

By UniProt entry, the sequences of proteins in these tests, tags left out.
UniProt P32481: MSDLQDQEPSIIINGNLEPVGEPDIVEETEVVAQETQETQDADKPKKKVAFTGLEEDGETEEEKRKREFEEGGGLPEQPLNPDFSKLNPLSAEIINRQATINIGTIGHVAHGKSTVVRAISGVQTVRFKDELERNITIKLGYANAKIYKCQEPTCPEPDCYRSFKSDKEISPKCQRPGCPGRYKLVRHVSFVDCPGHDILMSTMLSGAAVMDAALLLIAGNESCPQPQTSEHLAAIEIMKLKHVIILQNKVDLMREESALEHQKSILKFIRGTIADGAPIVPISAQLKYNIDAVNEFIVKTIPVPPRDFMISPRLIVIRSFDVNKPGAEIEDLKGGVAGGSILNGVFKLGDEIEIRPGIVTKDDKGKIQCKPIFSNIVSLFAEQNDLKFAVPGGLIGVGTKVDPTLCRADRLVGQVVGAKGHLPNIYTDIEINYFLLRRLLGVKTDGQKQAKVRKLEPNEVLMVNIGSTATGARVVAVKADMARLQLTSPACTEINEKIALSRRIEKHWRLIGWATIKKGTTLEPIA

How the values were obtained:
[1] = biological target: 8xHis-tagged eIF2γ subunit (yeast) (UniProt P32481); assay: co-purification; eIF2 complex purified through 8xHis-eIF2γ from yeast YP920: Ni-NTA (500 mM KCl, 20 mM imidazole), then heparin and cation exchange columns; subunit levels in the purified complex
[2] = biological target: T1, N-terminal 3xHA-tagged eIF2γ (wild type) (yeast, UniProt P32481 1-527); assay: co-IP; 3xHA-eIF2γ precipitated with anti-HA agarose beads from 300 μg yeast WCE (YP912), 4°C, 1 h; 20 mM HEPES pH 7.5, 100 mM KCl, 5 mM MgCl2, 5 mM NaF, 1 mM EDTA, 0.2% NP-40, 1% BSA; Western blot, bands normalised to the anti-HA band
T1 construct: eIF2γ, yeast GCD11; GCD11 ORF + terminator cloned behind GCD11 promoter + 3xHA; also called 3xHA eIF2γ; eIF2γ^WT; source: yeast strain YP912 (gcd11Δ, sui3Δ), single-copy plasmid, in whole-cell extract; not shown: 3xHA, N-terminal, kept

Row | binding [1] | binding [2] | Binder
1 | binds | – | eIF2α subunit (natural protein, yeast, UniProt P20459 1-304, looked up, eIF2α, yeast SUI2; chromosomal gene in the co-IP strains, whole SUI2 gene on pRS425 for the purified complex; also called SUI2; source: endogenous, yeast whole-cell extract (YP912); yeast YP920, high-copy pRS425 plasmid, co-purified in the 8xHis-eIF2 complex) MSTSHCRFYENKYPEIDDIVMVNVQQIAEMGAYVKLLEYDNIEGMILLSELSRRRIRSIQKLIRVGKNDVAVVLRVDKEKGYIDLSKRRVSSEDIIKCEEKYQKSKTVHSILRYCAEKFQIPLEELYKTIAWPLSRKFGHAYEAFKLSIIDETVWEGIEPPSKDVLDELKNYISKRLTPQAVKIRADVEVSCFSYEGIDAIKDALKSAEDMSTEQMQVKVKLVAAPLYVLTTQALDKQKGIEQLESAIEKITEVITKYGGVCNITMPPKAVTATEDAELQALLESKELDNRSDSEDDEDESDDE
2 | – | no binding | 40S ribosomal protein Rps20 (protein, UniProt P38701 1-121) MSDFQKEKVEEQEQQQQQIIKIRITLTSTKVKQLENVSSNIVKNAEQHNLVKKGPVRLPTKVLKISTRKTPNGEGSKTWETYEMRIHKRYIDLEAPVQIVKRITQITIEPGVDVEVVVASN
